{"sequences": {"note": "By UniProt entry, the sequences of proteins in these tests, tags left out.", "UniProt P08670": "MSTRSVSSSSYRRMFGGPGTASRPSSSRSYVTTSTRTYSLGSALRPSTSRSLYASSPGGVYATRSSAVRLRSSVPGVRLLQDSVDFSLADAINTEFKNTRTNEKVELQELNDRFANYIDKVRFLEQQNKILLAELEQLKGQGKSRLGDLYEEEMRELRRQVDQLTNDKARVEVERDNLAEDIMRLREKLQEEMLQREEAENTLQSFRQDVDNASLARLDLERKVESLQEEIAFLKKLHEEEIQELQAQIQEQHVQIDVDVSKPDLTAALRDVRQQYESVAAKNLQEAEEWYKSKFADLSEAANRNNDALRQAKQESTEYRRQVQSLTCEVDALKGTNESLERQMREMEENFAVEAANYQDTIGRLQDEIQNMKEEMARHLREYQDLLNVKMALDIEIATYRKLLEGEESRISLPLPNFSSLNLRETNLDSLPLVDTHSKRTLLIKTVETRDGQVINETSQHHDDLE"}, "source": "paper PMC10775674", "molecules": {"B1": {"name": "HA-NEURL3 (neuralized E3 ubiquitin protein ligase 3, HA-tagged) (enzyme, UniProt Q96EH8 1-262)", "chain": "MGAQLCFEANAKAPREALRFHAEAKGAQVRLDTRGCIAHRRTTFHDGIVFSQRPVRLGERVALRVLREESGWCGGLRVGFTRLDPACVSVPSLPPFLCPDLEEQSPTWAAVLPEGCALTGDLVRFWVDRRGCLFAKVNAGCRLLLREGVPVGAPLWAVMDVYGTTKAIELLDPTASRLPTPMPWDLSNKAVPEPKATPGEECAICFYHAANTRLVPCGHTYFCRYCAWRVFSDTAKCPVCRWQIEAVAPAQGPPALRVEEGS"}, "B2": {"name": "Myc-NEURL3 (enzyme, UniProt Q96EH8 1-262)", "chain": "B1 chain"}}, "key": {"[1]": {"target": "T1, HA-NEURL3 (neuralized E3 ubiquitin protein ligase 3, HA-tagged) (UniProt Q96EH8)", "T1 sequence": "B1 chain", "assay": "co-IP; HONE1 and SUNE1 cells transfected with HA-NEURL3; IP with anti-HA or anti-Vimentin antibody, Protein A/G magnetic beads, western blot"}, "[2]": {"target": "endogenous Vimentin (human (endogenous in HONE1 and SUNE1)) (UniProt P08670)", "assay": "co-IP; HONE1 and SUNE1 cells transfected with HA-NEURL3; IP with anti-HA or anti-Vimentin antibody, Protein A/G magnetic beads, western blot"}, "[3]": {"target": "Flag-tagged Vimentin (FL) (UniProt P08670)", "assay": "co-IP; 293T cells co-transfected with Flag-tagged Vimentin (FL or deletion mutants) and Myc-NEURL3; western blot"}}, "note": "Results are given in words; binding and its absence hold for the method and conditions named. In cells and extracts the contact can be indirect. Some results given as binding are weak or reduced against the parent protein; the word gives no strength. Tags and fused reporters may be left off the sequences shown."}
{"molecule": "endogenous Vimentin (from UniProt P08670 1-466)", "values": [{"measurement": "binding", "setting": "[1]", "value": "binds"}]}
{"molecule": "B1", "values": [{"measurement": "binding", "setting": "[2]", "value": "binds"}]}
{"molecule": "B2", "values": [{"measurement": "binding", "setting": "[3]", "value": "binds"}]}
